According to article PMC4537474:
For at least one entry, the source does not settle the construct or the ends of the probe. Weaker means in comparison with the reference protein, sequence or condition of that experiment.

Amino acid sequences for entries named in this document (tags omitted). A change or cut given only in a name is not applied to a line headed by its entry.
UniProt P0A8V6: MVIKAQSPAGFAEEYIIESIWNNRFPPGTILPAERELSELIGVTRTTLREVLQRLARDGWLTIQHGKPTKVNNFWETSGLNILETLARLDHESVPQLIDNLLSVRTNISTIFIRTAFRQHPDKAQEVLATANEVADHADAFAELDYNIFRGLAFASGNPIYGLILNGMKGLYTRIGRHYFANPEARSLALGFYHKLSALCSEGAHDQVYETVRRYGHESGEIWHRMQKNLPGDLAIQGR
UniProt Q8ED80: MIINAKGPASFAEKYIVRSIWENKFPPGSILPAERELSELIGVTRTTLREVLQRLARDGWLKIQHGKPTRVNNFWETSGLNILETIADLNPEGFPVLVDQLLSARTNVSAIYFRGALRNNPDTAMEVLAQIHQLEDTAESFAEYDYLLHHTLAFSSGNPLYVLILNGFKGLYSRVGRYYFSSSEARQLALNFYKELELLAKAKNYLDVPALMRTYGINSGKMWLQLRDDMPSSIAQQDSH

Assays:
[1] = molecular target: FadR_ec (Escherichia coli (K-12)) (UniProt P0A8V6); assay: EMSA; conditions: EMSA: Roche binding buffer, 20 min, room temperature, 0.2 pmol DIG probe (10 uL in Fig. 6), 7% native PAGE, recombinant protein, residues 1-239, protein details: 6xHis (pET28), label: digoxigenin
[2] = molecular target: FadR_she (UniProt Q8ED80); assay: EMSA; conditions: EMSA: Roche binding buffer, 20 min, room temperature, 0.2 pmol DIG probe (10 uL in Fig. 6), 7% native PAGE, recombinant protein, residues 1-240, protein details: 6xHis (pET28a), label: digoxigenin

Measured: binding result

GACATTAATTAGCTGATCGGAGTTGTTTAGCTTACACGTGTTCGCTAATCTTGGCG (double strand) [fabA_she probe]
binds more weakly: [1]; C16:0-CoA ~50 pmol | [1]; C16:1-CoA ~50 pmol | [1]; C18:0-CoA ~50 pmol | [1]; C18:1-CoA ~50 pmol | [2]; C16:0-CoA ~50 pmol | [2]; C16:1-CoA ~50 pmol | [2]; C18:0-CoA ~50 pmol | [2]; C18:1-CoA ~50 pmol
